Values quoted from earlier work in patent US20090175929A1 (priority 2006, published 2009).
Counter-ions that a name gives are not always drawn.

Settings: in vivo, po

COc1cc2c(cc1OC)C(=O)C(CC1CCN(Cc3ccccc3)CC1)C2 (stereo not shown) [donepezil hydrochloride]
Amount of donepezil metabolites such as 6-O-desmethyldonepezil generated, based on the parent drug: 25 to 35%
